According to PubChem BioAssay AID192 (DTP/NCI, 2004):
The list is a part of this screen's results and no random one: it is rich in T/C values a quarter to a half above the control, in often repeated tests (any T/C) and in doses without a T/C. Further doses and runs are listed elsewhere. T/C: endpoint of the treated group in % of that of the vehicle group. Some entries give survivors of the animals treated and no T/C: the source files T/C as zero there, which appears to mark a toxic dose or a test without result, not a measured value. Some doses without a T/C left all or most animals alive at the check, yet need not have been tolerated: the source hardly ever lists a survival T/C far under the control, and the zero likely stands for such cases as well. Counts of survivors are from the toxicity check (mostly the fifth day) where no day follows; animals may have died later. Schedule codes are those of the source, read here as Q, the interval in days (D) or hours (H), X, the number of doses. For survival time, this PubChem deposit counts one and a half times the control or more as active, and values a quarter to a half above the control carry no call in these data; other NCI protocols may use other cut-offs. Some T/C values are followed by the survivors on the day toxicity was checked, most often the fifth; where none is given, no animal had died by that day. Some doses were run more than once; the results are listed from low to high. Numbered stars: 1 amine (or outer) side, 2 acyl side, 3 side chain; on linkers, the order of the positions; unused ones are H or OH. Bridge positions count the residues as written; N and C are the ends. Square brackets hold non-standard residues; d marks the D form. Peptide text beside a SMILES is read from it. I, II: the chains in the order shown. Actinocin(9to1) = Cc1c2oc3c(C)ccc(C(=O)[*:1])c3nc-2c(C(=O)[*:2])c(N)c1=O; NMeV = CN[CH](C(=O)O)C(C)C; Pip = O=C(O)[CH]1CCCCN1; Sar = CNCC(=O)O

Tested on: BDF1 mice, B16 melanoma ip, median survival T/C
Assay: NCI In Vivo Anticancer Drug Screen. Data for tumor model B16 Melanoma (intraperitoneal) in B6D2F1 (BDF1) mice
Conditions: T/C endpoint: median survival time, higher T/C = longer survival
Procedure, shortened: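 Each result divides a survival or tumor-size measurement in the compound-treated group by the same measurement in the vehicle group.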

[1] = dose: 100.0 mg/kg/injection, schedule: Q01DX009 (ip), vehicle: Klucel (hydroxypropylcellulose) (HPC)
[2] = dose: 200.0 mg/kg/injection, schedule: Q01DX009 (ip), vehicle: Klucel (hydroxypropylcellulose) (HPC)
[3] = dose: 400.0 mg/kg/injection, schedule: Q01DX009 (ip), vehicle: Klucel (hydroxypropylcellulose) (HPC)
[4] = dose: 25.0 mg/kg/injection, schedule: Q01DX009 (ip), vehicle: Klucel (hydroxypropylcellulose) (HPC)
[5] = dose: 50.0 mg/kg/injection, schedule: Q01DX009 (ip), vehicle: Klucel (hydroxypropylcellulose) (HPC)
[6] = dose: 25.0 mg/kg/injection, schedule: Q01DX009 (ip), vehicle: saline with Tween-80
[7] = dose: 400.0 mg/kg/injection, schedule: Q01DX009 (ip), vehicle: saline with Tween-80
[8] = dose: 12.5 mg/kg/injection, schedule: Q01DX009 (ip), vehicle: saline with Tween-80
[9] = dose: 1.0 mg/kg/injection, schedule: Q01DX009 (ip), vehicle: saline + alcohol
[10] = dose: 12.0 mg/kg/injection, schedule: Q04DX003 (ip), vehicle: saline + alcohol

CCN(CC)CCCC(C)Nc1c2ccc(Cl)cc2nc2ccc(OC)cc12 (configuration not stated)
T/C (dose: 64.0 mg/kg/injection, schedule: Q01DX009 (ip), vehicle: saline): 129 % of control [9 of 10 alive]
T/C (dose: 64.0 mg/kg/injection, schedule: Q01DX009 (ip), vehicle: suspension in saline): 140 % of control
T/C (dose: 128.0 mg/kg/injection, schedule: Q01DX009 (ip), vehicle: saline with Tween-80): 142 % of control
survivor count (dose: 128.0 mg/kg/injection, schedule: Q01DX009 (ip), vehicle: saline): 10 of 10
survivor count (dose: 128.0 mg/kg/injection, schedule: Q01DX009 (ip), vehicle: suspension in saline): 10 of 10
survivor count (dose: 160.0 mg/kg/injection, schedule: Q04DX003 (ip), vehicle: saline with Tween-80): 4 of 10
survivor count (dose: 256.0 mg/kg/injection, schedule: Q01DX009 (ip), vehicle: saline with Tween-80): 1 of 10
survivor count (dose: 256.0 mg/kg/injection, schedule: Q01DX009 (ip), vehicle: saline): 0 of 10
survivor count (dose: 256.0 mg/kg/injection, schedule: Q01DX009 (ip), vehicle: suspension in saline): 0 of 10
survivor count (dose: 320.0 mg/kg/injection, schedule: Q04DX003 (ip), vehicle: saline with Tween-80): 0 of 10

Cc1ccccc1N=Nc1c(N)ccc2ccccc12
survivor count [1]: 10 of 10
survivor count [2]: 10 of 10
survivor count [3]: 10 of 10

Nc1ccc2ccc(O)cc2c1
survivor count (dose: 300.0 mg/kg/injection, schedule: Q04DX003 (ip), vehicle: saline with Tween-80): 0 of 10

ClCc1ccc(Oc2ccc(CCl)cc2)cc1
T/C [4]: 128 % of control
survivor count [1]: 6 of 10
survivor count [2]: 2 of 10

CCO/C=C1\SC(=S)N(c2cccc(OC)c2)C1=O
T/C [5]: 130 % of control
survivor count [2]: 10 of 10
survivor count [3]: 9 of 10

O=[N+]([O-])c1ccc(/C=N\Nc2ccc([N+](=O)[O-])cn2)cc1
survivor count (dose: 6.25 mg/kg/injection, schedule: Q01DX009 (ip), vehicle: Klucel (hydroxypropylcellulose) (HPC)): 10 of 10
survivor count [4]: 10 of 10
survivor count [5]: 10 of 10

C=Cc1cc(OC)c2c(c1)c(=O)oc1c2cc(OC)c2c(O)ccc(C3OC(C(C)O)C(O)C3O)c21 (configuration not stated)
T/C [4]: 135 % of control
T/C [5]: 127 % of control
T/C [2]: 136 % of control

O=[N+]([O-])c1ccc(C=C2C(Cl)=C(Cl)C(Cl)=C2Cl)cc1
survivor count [6]: 10 of 10

FC1(F)SC2C3CC(C4CCC=C43)C2C1(F)F (configuration not stated)
survivor count (dose: 1.56 mg/kg/injection, schedule: Q01DX009 (ip), vehicle: Klucel (hydroxypropylcellulose) (HPC)): 1 of 10

CC(=O)Oc1ccc[nH]c1=O
survivor count (dose: 600.0 mg/kg/injection, schedule: Q01DX009 (ip), vehicle: saline with Tween-80): 8 of 10
survivor count (dose: 800.0 mg/kg/injection, schedule: Q01DX009 (ip), vehicle: saline with Tween-80): 8 of 10
survivor count (dose: 1000.0 mg/kg/injection, schedule: Q01DX009 (ip), vehicle: saline with Tween-80): 3 of 10
survivor count (dose: 1200.0 mg/kg/injection, schedule: Q01DX009 (ip), vehicle: saline with Tween-80): 2 of 10

C=CCOc1cccc(OCC=C)c1C
survivor count [7]: 10 of 10

ClCCN(CCCl)CCN1c2ccccc2Sc2ccccc21
T/C (dose: 0.78 mg/kg/injection, schedule: Q01DX009 (ip), vehicle: saline with Tween-80): 125 % of control
T/C (dose: 3.12 mg/kg/injection, schedule: Q01DX009 (ip), vehicle: saline with Tween-80): 127 and 127 % of control [9 of 10 alive]
T/C (dose: 6.25 mg/kg/injection, schedule: Q01DX009 (ip), vehicle: saline with Tween-80): 134 % of control
T/C [8]: 147 % of control
survivor count [8]: 7 of 10
T/C (dose: 12.5 mg/kg/injection, schedule: Q04DX003 (ip), vehicle: Klucel (hydroxypropylcellulose) (HPC)): 137 % of control
survivor count [6]: 0 of 10
T/C (dose: 25.0 mg/kg/injection, schedule: Q04DX003 (ip), vehicle: Klucel (hydroxypropylcellulose) (HPC)): 144 % of control
survivor count (dose: 50.0 mg/kg/injection, schedule: Q04DX003 (ip), vehicle: Klucel (hydroxypropylcellulose) (HPC)): 10 of 10

CC1CCCN(c2ccc([N+](=O)[O-])cc2[N+](=O)[O-])C1 (configuration not stated)
survivor count [2]: 9 of 10

CCCCCCCCCCCCCC(=O)OC12CC(C)C3(O)C(C=C(CO)C(O)C4(O)C(=O)C(C)=CC43)C1C2(C)C (configuration not stated)
survivor count (dose: 0.06 mg/kg/injection, schedule: Q01DX009 (ip), vehicle: saline + alcohol): 9 of 10
survivor count (dose: 0.25 mg/kg/injection, schedule: Q01DX009 (ip), vehicle: saline + alcohol): 10 of 10
survivor count (dose: 0.5 mg/kg/injection, schedule: Q01DX009 (ip), vehicle: saline + alcohol): 10 of 10
survivor count [9]: 9 of 10

Oc1nc(/N=C2/N=c3ccc(Cl)cc3=N2)[nH]c1O
survivor count [1]: 9 of 10
survivor count [2]: 7 of 10
survivor count [3]: 7 of 10

Cc1c2oc3c(C)ccc(C(=O)NC4C(=O)NC(C(C)C)C(=O)N5CCCCC5C(=O)N(C)CC(=O)N(C)C(C(C)C)C(=O)OC4C)c3nc-2c(C(=O)NC2C(=O)NC(C(C)C)C(=O)N3CCCCC3C(=O)N(C)CC(=O)N(C)C(C(C)C)C(=O)OC2C)c(N)c1=O (configuration not stated) (I: TV[Pip][Sar][NMeV] / II: TV[Pip][Sar][NMeV]; ester I:1-I:C, II:1-II:C; linker I:N-II:N via Actinocin(9to1); configuration not given here)
T/C [9]: 137 % of control
T/C (dose: 3.0 mg/kg/injection, schedule: Q04DX003 (ip), vehicle: saline + alcohol): 128 and 141 % of control
T/C (dose: 4.0 mg/kg/injection, schedule: Q01DX009 (ip), vehicle: saline + alcohol): 147 % of control
T/C (dose: 6.0 mg/kg/injection, schedule: Q04DX003 (ip), vehicle: saline + alcohol): 131 % of control
T/C [10]: 141 % of control
survivor count [10]: 8 of 8

COc1c(O)c2c(c3cc(C(=O)N4CCc5c4c(O)c(OC)c4[nH]c(C(=O)N6CC7CC78C6=CC(=O)c6[nH]cc(C)c68)cc54)[nH]c13)CCN2C(N)=O (configuration not stated)
T/C (dose: 3.0 micrograms/kg/injection, schedule: Q01DX009 (ip), vehicle: other): 140 % of control
survivor count (dose: 30.0 micrograms/kg/injection, schedule: Q01DX009 (ip), vehicle: other): 10 of 10
survivor count (dose: 100.0 micrograms/kg/injection, schedule: Q01DX009 (ip), vehicle: other): 10 of 10

COC1=CC(=O)N(C(=O)C2CSC(C(CO)NC(=O)c3csc(/C=N/O)n3)=N2)C1 (configuration not stated)
T/C [2]: 127 % of control

CN(C)N=Nc1cn(C)c(=O)n(C)c1=O
survivor count (dose: 100.0 mg/kg/injection, schedule: Q04DX003 (ip), vehicle: Klucel (hydroxypropylcellulose) (HPC)): 12 of 12

CC(Cc1ccccc1)NN (configuration not stated)
survivor count (dose: 15.62 mg/kg/injection, schedule: Q01DX009 (ip), vehicle: saline): 10 of 10

COc1ccc2cc1Oc1ccc(cc1)C[C@H]1c3cc(c(OC)cc3CCN1C)Oc1c(OC)c(OC)cc3c1[C@H](C2)N(C)CC3
survivor count (dose: 50.0 mg/kg/injection, schedule: Q01DX009 (ip), vehicle: saline with Tween-80): 6 of 6
survivor count (dose: 100.0 mg/kg/injection, schedule: Q01DX009 (ip), vehicle: other): 9 of 10
survivor count (dose: 100.0 mg/kg/injection, schedule: Q01DX009 (ip), vehicle: saline): 2 of 6
survivor count (dose: 200.0 mg/kg/injection, schedule: Q01DX009 (ip), vehicle: other): 0 of 10
survivor count (dose: 200.0 mg/kg/injection, schedule: Q01DX009 (ip), vehicle: saline with Tween-80): 6 of 6
survivor count (dose: 200.0 mg/kg/injection, schedule: Q04DX003 (ip), vehicle: saline): 1 of 8
survivor count [7]: 6 of 6

C=CCOCC(O)CN(C)c1ccccc1 (configuration not stated)
survivor count (dose: 200.0 mg/kg/injection, schedule: Q04DX003 (ip), vehicle: Klucel (hydroxypropylcellulose) (HPC)): 10 of 10

CNC(=O)Nc1cccc(C(F)(F)F)c1
survivor count [2]: 10 of 10
survivor count [3]: 7 of 10
